Test results published in patent EP0427693A1, “Method for azide displacement of alpha-triflates of 1,5-lactones” (MONSANTO COMPANY, priority 1989, dated 1991).
Some results were stated once for a whole list of compounds, not compound by compound.

Target: T1, β-mannosidase (Homo sapiens, UniProt O00462)
T1 construct: from tissue; host or cells: human liver
T1 sequence (O00462 18-879): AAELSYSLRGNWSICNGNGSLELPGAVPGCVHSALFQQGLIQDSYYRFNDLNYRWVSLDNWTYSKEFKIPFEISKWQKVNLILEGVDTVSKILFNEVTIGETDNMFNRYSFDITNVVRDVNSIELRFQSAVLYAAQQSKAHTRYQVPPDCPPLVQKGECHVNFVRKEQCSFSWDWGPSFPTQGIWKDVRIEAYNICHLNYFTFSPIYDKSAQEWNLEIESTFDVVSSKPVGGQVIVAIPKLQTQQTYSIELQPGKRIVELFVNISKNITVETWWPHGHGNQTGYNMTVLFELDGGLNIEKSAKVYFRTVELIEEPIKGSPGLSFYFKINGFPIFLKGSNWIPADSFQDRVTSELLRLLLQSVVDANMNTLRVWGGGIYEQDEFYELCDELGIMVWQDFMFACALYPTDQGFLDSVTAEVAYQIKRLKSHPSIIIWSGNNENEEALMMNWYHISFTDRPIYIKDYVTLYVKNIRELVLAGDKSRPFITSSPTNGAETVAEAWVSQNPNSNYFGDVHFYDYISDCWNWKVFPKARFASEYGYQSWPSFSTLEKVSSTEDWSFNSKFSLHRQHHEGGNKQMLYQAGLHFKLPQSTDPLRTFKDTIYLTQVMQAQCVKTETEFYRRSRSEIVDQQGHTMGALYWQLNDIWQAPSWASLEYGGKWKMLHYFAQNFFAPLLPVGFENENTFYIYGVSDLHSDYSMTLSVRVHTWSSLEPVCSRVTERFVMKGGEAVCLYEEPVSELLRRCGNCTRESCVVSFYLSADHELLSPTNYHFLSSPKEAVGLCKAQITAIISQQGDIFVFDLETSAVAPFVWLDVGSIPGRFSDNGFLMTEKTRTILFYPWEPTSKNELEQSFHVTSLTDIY
Experiment: Human liver glycosidase inhibition, β-mannosidase
Assay type: biochemical
Conditions: human liver glycosidases

Row | Compound | inhibition of β-mannosidase (in words)
1 | OC[C@H]1NC[C@@H](O)[C@@H](O)[C@@H]1O [Deoxymannojirimycin, reference compound] | Neither compound inhibited
2 | OC[C@H]1N[C@H](CO)[C@@H](O)C(O)[C@@H]1O (stereo partly drawn) [Homomannojirimycin, 2,6-dideoxy-2,6-imino-D-glycero-D-talo-heptitol] | Neither compound inhibited
